Assay results as given in the supplement of paper PMC3334620.
The full ranking holds about 33,000 sequences; the median of “E-score (-0.5 to 0.5)” is about -0.0034, and the highest 2% start at about 0.25. The list shows a part of the results.

Molecular target: T1, Yap3 (UniProt P38749)
T1 sequence: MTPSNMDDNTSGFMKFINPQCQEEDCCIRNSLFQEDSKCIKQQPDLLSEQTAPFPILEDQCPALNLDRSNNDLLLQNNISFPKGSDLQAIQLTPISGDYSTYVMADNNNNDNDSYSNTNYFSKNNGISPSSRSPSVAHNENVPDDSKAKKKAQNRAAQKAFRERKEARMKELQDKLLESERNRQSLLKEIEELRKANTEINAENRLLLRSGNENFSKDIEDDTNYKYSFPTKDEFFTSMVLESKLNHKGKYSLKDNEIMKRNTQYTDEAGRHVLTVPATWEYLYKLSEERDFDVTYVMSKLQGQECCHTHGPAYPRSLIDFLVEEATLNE
Experiment: PBM E-score (8-mer binding enrichment) (E-score (-0.5 to 0.5)); higher = stronger / more preferred TF binding
Conditions: protein concentration: 100 nM; construct: GST-full length
How it was run: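 Each ungapped eight-base word and its reverse complement, pooled, received an E-score from the Universal PBM Analysis Suite. Underlying scans, normalised with masliner, recorded fluorescent anti-GST bound to GST-tagged yeast transcription factors. These were applied at about 100-200 nM to universal all-10-mer Agilent arrays double-stranded by primer extension.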

Row | Sequence | PBM E-score
1 | AACTACAA | 0.233
2 | GCCTTACC | -0.227
3 | ACTCAGAG | -0.0226
4 | AGACTCAT | -0.0103
5 | TAGACATA | 0.112
6 | CTAGTATA | -0.0257
7 | AGGGTACT | -0.11
8 | ATCCAGCG | 0.0902
9 | CGCACAAA | 0.107
10 | ACGAACCT | -0.0579
11 | ATTCGGAA | 0.196
12 | TACTTAAA | -0.0635
13 | CGCAGGAA | 0.0102
14 | CCTATCAA | 0.13
15 | CAGCGGCG | 0.117
16 | CAGGATGA | -0.0226
17 | TGTAAAAA | 0.236
18 | AACGCTGA | -0.0776
19 | AGGTTTTA | -0.0254
20 | CAATATGC | 0.0657
21 | ATCGCGTC | 0.0291
22 | CGCTCCTA | -0.177
23 | ACTTGACT | 0.0954
24 | CGATTGCC | 0.0196
25 | CGCCGCAA | -0.0367

Row | Sequence | PBM E-score
26 | AGTGCACG | 0.09
27 | CTCGATAC | 0.139
28 | AAGTGTAT | 0.136
29 | AGCAAAAG | -0.0951
30 | CCTAGAAA | 0.022
31 | TATCTCCA | 0.198
32 | CTACTTGC | 0.126
33 | AGAGGACG | 0.0405
34 | CCTGCCAA | -0.144
35 | CTATACAC | -0.122
36 | ATCGGAGA | -0.118
37 | GAACGGCC | -0.132
38 | AACTAGCT | -0.0564
39 | ATGCGTTC | 0.174
40 | ACTACCCC | -0.099
41 | GTGAACAA | 0.0727
42 | AATCTGTC | 0.115
43 | ACGATACA | 0.0599
44 | ACGCTTGC | -0.177
45 | AAAGACGC | -0.0497
46 | AAACAGGG | 0.0316
47 | ACCCCGAA | 0.111
48 | AAGTCCTA | -0.0884
49 | AGTGCTAG | 0.112
50 | ATGCGCTG | -0.187

Row | Sequence | PBM E-score
51 | ATTACTTG | 0.165
52 | ACACGCAT | 0.0231
53 | CACCAAAC | 0.135
54 | CCGCCGTA | 0.0805
55 | GCGCCTAC | -0.0312
56 | CTGTGACC | -0.0819
57 | CCCGTGGA | -0.231
58 | CCCCCCAA | -0.348
59 | GAGGAACA | 0.0869
60 | AATACGGT | 0.0519
61 | GAACTCTC | -0.0889
62 | CTGGATCC | 0.121
63 | AGAAGGCG | -0.107
64 | GGGTGGGA | 0.0567
65 | GATCCTTA | -0.00302
66 | ACTACTAA | 0.0558
67 | CCCGGTAA | -0.139
68 | AATCTTTA | 0.0419
69 | CTAGTCTA | -0.146
70 | TCCCTGAA | 0.0587
71 | AACTCTAT | -0.0612
72 | AAATTCGT | 0.312
73 | ACCAGTTG | 0.0294
74 | GTGACCAC | -0.236
75 | CCTAGACC | -0.146

Row | Sequence | PBM E-score
76 | CTACCATA | 0.152
77 | TAGCAAAA | 0.0444
78 | AACCAGGA | 0.0985
79 | CCTTGGTC | -0.183
80 | CTATAGAG | -0.161
81 | CGCCACGC | -0.193
82 | CGTGTAAA | -0.0448
83 | AAAAGCTC | 0.0576
84 | CGCTTGTC | 0.0721
85 | GAGACCGC | -0.207
86 | GTGCTGTA | -0.165
87 | AATCGTAA | 0.191
88 | CCAGCATC | -0.153
89 | CATGAATC | -0.0443
90 | CTGATCTA | -0.166
91 | ACCGCTCT | -0.0907
92 | AGCAGCGG | -0.196
93 | CTACCCCA | 0.0317
94 | ATAAAGAA | 0.26
95 | AATACCAT | 0.0373
96 | GGAAGACA | 0.0335
97 | TAGTCATA | 0.217
98 | ACTATTAG | 0.136
99 | CATGTAAA | 0.0358
100 | AAAAGGTA | -0.0209

Shown as comma-separated lines: part of the list above.
Row,Sequence,PBM E-score
81,CGCCACGC,-0.193
82,CGTGTAAA,-0.0448
83,AAAAGCTC,0.0576
84,CGCTTGTC,0.0721
85,GAGACCGC,-0.207
86,GTGCTGTA,-0.165

Next records follow.

Row | Sequence | PBM E-score
101 | ACTCCGAA | -0.142
102 | AGTCAGCC | 0.0707
103 | CCAATGGC | -0.12
104 | GATAAAAC | 0.219
105 | TACCCGGA | 0.0391
106 | CCGAGTCA | -0.0996
107 | TCTGGTCA | 0.00698
108 | ACTACGGA | 0.0435
109 | AACACTGC | 0.186
110 | ATTCAAGC | 0.0943
111 | ACCAGGGC | -0.283
112 | ATCGGTAG | 0.11
113 | CAATCATA | 0.174
114 | TAAGGGCA | -0.0126
115 | CACCAAAA | 0.102
116 | AGGAGTGG | -0.245
117 | CACTAGGC | -0.0392
118 | CAAGGGCC | -0.275
119 | ATAGTTTG | 0.194
120 | AAGTTCCA | -0.098
121 | AGCCACGC | -0.0981
122 | TCCCCCCA | -0.325
123 | CAAATGAA | 0.14
124 | TCTACACA | 0.042
125 | AAAACCCC | -0.249

Row | Sequence | PBM E-score
126 | GCGGTTTA | 0.11
127 | ATGCGATA | 0.0202
128 | ATGCGAGG | 0.107
129 | AATCCTAG | 0.0605
130 | GCCTTGAA | -0.185
131 | CCCGCAGA | -0.0892
132 | CAGCAACG | 0.233
133 | GGACGACC | -0.359
134 | AGCTAGAA | 0.0175
135 | AGCTGAGA | -0.0704
136 | AAACGTTC | 0.044
137 | ATGGCTCC | -0.118
138 | CCCGGTCG | -0.211
139 | AAATTGCC | 0.172
140 | CCGCGACC | -0.157
141 | GAGGCTCC | -0.116
142 | TAAAGTTA | 0.243
143 | TACGGTCA | 0.0709
144 | AGGTTGCG | -0.133
145 | CGAGCTAC | -0.0458
146 | ACCGTTGC | -0.0634
147 | CCTACGGC | -0.172
148 | CACGACTG | -0.0983
149 | TCGCGGCA | -0.0618
150 | GGAGGTCA | -0.294

Row | Sequence | PBM E-score
151 | AGGACCAT | -0.0436
152 | CATTAATC | 0.0977
153 | AAACATAC | 0.0457
154 | AGTCCTAC | -0.125
155 | GATCATAA | 0.209
156 | ATGCGATC | 0.0595
157 | ATGAAAGG | 0.044
158 | CCACGCAG | -0.167
159 | GCGAACCA | 0.0248
160 | ACCATACT | 0.188
161 | CGACTCCC | -0.136
162 | TACCTTGA | 0.0307
163 | AATTATAA | 0.224
164 | ATACCGAT | 0.0926
165 | TAAGAAGA | 0.152
166 | AAAGATGC | -0.00735
167 | TAAATGGA | 0.122
168 | GAAGACCC | -0.137
169 | CCCAAATA | -0.00299
170 | CTAATAGC | -0.0918
171 | AAATAGGC | 0.0995
172 | ATGTCAAG | -0.0356
173 | AGTATGGG | -0.092
174 | GGAGCCTA | -0.0407
175 | CATAAGAA | 0.21

Row | Sequence | PBM E-score
176 | GAGGCGCA | -0.0003
177 | GTATAAAC | 0.206
178 | AAGTGCGC | 0.0312
179 | CATGACAG | -0.0116
180 | ATACATAG | 0.112
181 | GTGAAATA | 0.0605
182 | ATAAGAGA | 0.0807
183 | AACTTCAA | 0.04
184 | CTACGCGA | 0.0426
185 | ATAAAACC | 0.146
186 | GCAAGCGC | 0.0309
187 | ACGAAAGT | 0.0801
188 | AAATGAGT | 0.23
189 | GGACACCC | -0.305
190 | TGGACCCA | -0.0603
191 | AAGCGAGC | 0.0346
192 | AACCAATC | 0.087
193 | TGACAAAA | 0.207
194 | TGCGCCCA | -0.158
195 | TCACGGGA | 0.154
196 | AGATACAT | 0.179
197 | GGAAAGTA | 0.164
198 | AACTGTGA | 0.101
199 | CCCGTCAG | -0.308
200 | ACCCCTCA | -0.17

Row | Sequence | PBM E-score
201 | GAACCTGA | -0.0153
202 | CAGCTTAA | -0.0332
203 | CATCGCAA | -0.19
204 | ACCTTCGA | -0.133
205 | GGACAACA | 0.0579
206 | ACACGACT | 0.0807
207 | CTATATTA | 0.325
208 | CCCATAGC | -0.245
209 | ATGACCCA | 0.198
210 | CCAAATTC | 0.0333
211 | AGGGGACA | -0.04
212 | ATTGTAGG | 0.25
213 | CCCTGGAG | -0.304
214 | CGGGCAAG | -0.0825
215 | CTACTGAA | -0.155
216 | TACTTCAA | 0.191
217 | GTCGGGAA | -0.0187
218 | CCCCCGTA | -0.319
219 | CCTACCTC | -0.162

Quoted from above, entries 215 to 217
Row | Sequence | PBM E-score
215 | CTACTGAA | -0.155
216 | TACTTCAA | 0.191
217 | GTCGGGAA | -0.0187

Quoted from the listing.
PBM E-score with ATTGTAGG is entered as 0.25
PBM E-score with ACCTTCGA is entered as -0.133
PBM E-score with CGGGCAAG is entered as -0.0825
